No constants are given. Whether binding was seen depends on the method and setting. In cells and extracts the contact can be indirect. Binding calls can cover weak binding; strength is not graded here. Sequences can lack the tags named with a protein.
Biological target: T1, DYN-1A tagged with FLAG (DYN-1-3xFLAG) (C. elegans) (UniProt P39055)
T1 sequence: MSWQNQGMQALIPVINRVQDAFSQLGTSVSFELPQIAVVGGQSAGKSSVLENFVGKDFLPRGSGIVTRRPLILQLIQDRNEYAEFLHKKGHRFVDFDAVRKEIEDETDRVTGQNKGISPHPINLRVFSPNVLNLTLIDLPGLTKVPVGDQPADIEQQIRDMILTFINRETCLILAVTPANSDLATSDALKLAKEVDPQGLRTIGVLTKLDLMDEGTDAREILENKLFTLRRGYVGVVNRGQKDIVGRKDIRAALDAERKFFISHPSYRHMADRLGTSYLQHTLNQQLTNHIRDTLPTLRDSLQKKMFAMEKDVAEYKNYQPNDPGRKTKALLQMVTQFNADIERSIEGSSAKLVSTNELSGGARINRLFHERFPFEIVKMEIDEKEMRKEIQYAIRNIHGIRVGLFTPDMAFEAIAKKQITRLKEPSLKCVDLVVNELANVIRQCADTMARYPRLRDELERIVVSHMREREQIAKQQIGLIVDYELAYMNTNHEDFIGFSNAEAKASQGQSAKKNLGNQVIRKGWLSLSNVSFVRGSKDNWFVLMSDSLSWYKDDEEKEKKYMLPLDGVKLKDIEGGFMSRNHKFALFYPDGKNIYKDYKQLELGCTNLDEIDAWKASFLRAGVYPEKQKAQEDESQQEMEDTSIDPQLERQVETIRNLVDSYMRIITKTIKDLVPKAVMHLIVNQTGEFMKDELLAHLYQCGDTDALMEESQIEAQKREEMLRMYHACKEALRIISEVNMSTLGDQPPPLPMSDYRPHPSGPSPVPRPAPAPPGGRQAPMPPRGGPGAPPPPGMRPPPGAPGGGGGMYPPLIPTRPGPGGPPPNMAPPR
Experiment: co-IP; HEK293T cells transfected with DYN-1-3xFLAG and/or EFF-1A-eGFP; lysed in RIPA buffer 24 h after transfection; IP with anti-FLAG M2 agarose beads 3-4 h at 4°C, four washes with RIPA; immunoblot with anti-GFP; blot of one experiment

By UniProt entry, the sequences of proteins in these tests, tags left out. Where a name states a change or a piece, a line headed by the entry shows the natural chain unless it says otherwise.
UniProt G5ECA1: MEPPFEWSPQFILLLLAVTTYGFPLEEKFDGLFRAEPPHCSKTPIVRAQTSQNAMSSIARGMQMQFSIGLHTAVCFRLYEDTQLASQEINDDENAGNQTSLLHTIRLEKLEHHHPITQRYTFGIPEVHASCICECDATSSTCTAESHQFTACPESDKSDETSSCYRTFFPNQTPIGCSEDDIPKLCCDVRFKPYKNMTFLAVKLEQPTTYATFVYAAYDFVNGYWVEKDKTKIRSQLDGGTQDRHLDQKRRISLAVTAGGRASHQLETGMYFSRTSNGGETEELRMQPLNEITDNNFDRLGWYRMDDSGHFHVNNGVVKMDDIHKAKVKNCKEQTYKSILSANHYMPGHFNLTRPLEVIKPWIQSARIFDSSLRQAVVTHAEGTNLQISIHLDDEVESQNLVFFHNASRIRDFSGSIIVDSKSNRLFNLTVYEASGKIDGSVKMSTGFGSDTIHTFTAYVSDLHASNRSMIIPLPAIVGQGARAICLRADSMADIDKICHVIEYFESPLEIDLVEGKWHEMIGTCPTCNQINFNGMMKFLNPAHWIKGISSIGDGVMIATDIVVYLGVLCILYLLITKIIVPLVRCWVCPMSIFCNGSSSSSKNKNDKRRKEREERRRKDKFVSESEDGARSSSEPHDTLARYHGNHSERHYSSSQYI

With “EFF-1A tagged with GFP (EFF-1A-eGFP) (from UniProt G5ECA1)” the binding was “binds”.

— paper PMC10167995
